Reference: patent US11959095B2, “Compositions, cell constructs, and methods of making and using the same” (Wake Forest University Health Sciences, priority 2016, dated 2024)
For at least one compound, name, drawing or mass did not settle the structure.

Assays:
[1] = test system: A172 cells; experiment: Stiffness study with FAK inhibition, MTS assay on hydrogels S1-S3; assay type: cell-based; details: 100 nm Defactinib, hydrogels S1-S3, days 1, 4, 7
[2] = test system: U373 cells; experiment: as above; assay type: cell-based; details: 100 nm Defactinib, hydrogels S1-S3, days 1, 4, 7
[3] = test system: U138 cells; experiment: as above; assay type: cell-based; details: 100 nm Defactinib, hydrogels S1-S3, days 1, 4, 7
[4] = test system: newly diagnosed GBM; details: conformal radiation therapy with concurrent and adjuvant oral TMZ; cited from earlier work

Row | SMILES | proliferation depending on hydrogel stiffness (MTS) [1] | proliferation depending on hydrogel stiffness (MTS) ([1]; listed as Defactinb) | proliferation depending on hydrogel stiffness (MTS) [2] | proliferation depending on hydrogel stiffness (MTS) ([2]; listed as Defactinb) | proliferation depending on hydrogel stiffness (MTS) [3] | 1-year survival rates [4] | median progression-free survival [4] [months]
1 | CNC(=O)c1ccc(Nc2ncc(C(F)(F)F)c(NCc3nccnc3N(C)S(C)(=O)=O)n2)cc1 [Defactinib] | reverse behaviour in all stiffness realms | proliferated better on the soft hydrogels rather than the stiffest (S3) | reverse behaviour in all stiffness realms | proliferated better on the soft hydrogels rather than the stiffest (S3) | reverse behaviour in all stiffness realms |  | 
2 | Cn1nnc2c(C(N)=O)ncn2c1=O [TMZ, temozolomide] |  |  |  |  |  | approximately 70% | 7
